From PubChem BioAssay AID463183 (Sanford-Burnham Center for Chemical Genomics, 2010)
The list shows a part of the results. The main result of the screen is listed elsewhere. These columns were measured beside it and carry no call. The list favours compounds with an active or inconclusive main result.

Assay: hepatocyte lipid droplet accumulation inhibitors, confirmation, imaging, AML12 mouse hepatocytes, single concentration, high-content (AID 463183);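 note: cells counted after overnight compound exposure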
Settings: BODIPY lipid droplet imaging, measured here: cell count, cytotoxicity, at 5.2 µM, droplets induced with 100 µM oleic acid

**Q.** With `CC1(C)OC(c2ccccc2)=C/C(=C/C=C2C(=O)c3ccccc3C2=O)O1` as the compound, how does the cell count read?
**A.** The cell count was 1590 cells.

**Q.** Which cell count does the source give for `Clc1ccccc1CN(Cc1ccco1)Cc1nnnn1C1CCCC1` here?
**A.** Its cell count is 1590 cells.

**Q.** With `CC(C)COc1cccc(-c2cc(C(=O)Nc3ccon3)c3ccccc3n2)c1` as the compound, how does the cell count read?
**A.** The cell count was 1640 cells.

**Q.** With `CC1=CC(C)(C)N2C(=O)C3(NCCc4c3[nH]c3ccccc43)c3cccc1c32` (centres undefined) as the compound, how does the cell count read?
**A.** Its cell count is 1650 cells.

**Q.** With `O=C(Nc1ccc([N+](=O)[O-])cn1)c1cc(-c2cccc(Cl)c2)nc2ccccc12` as the compound, how does the cell count read?
**A.** The cell count was 1600 cells.

**Q.** Which cell count does the source give for `CCOc1ccc(CCNC(=O)C(C)n2nc(C)n3c(cc4occc43)c2=O)cc1OCC` (centres undefined) here?
**A.** Its cell count is 1530 cells.

**Q.** For `CN1CC(=O)Nc2ccc([N+](=O)[O-])cc2C1=O`, which cell count is on record?
**A.** Its cell count is 1580 cells.

**Q.** Which cell count does the source give for `Cc1nnc(SCC(=O)Nc2cc(-c3cc(C)c(C)cc3C)nn2-c2ccccc2)s1` here?
**A.** The cell count was 1570 cells.

**Q.** Which cell count does the source give for `CCCCc1ccc(NC(=O)CSc2nc3ncccc3[nH]2)cc1` here?
**A.** Its cell count is 1540 cells.

**Q.** With `CCOC(=O)C1CCC(CN(Cc2ccccc2)S(=O)(=O)c2ccc([N+](=O)[O-])cc2)CC1` (centres undefined) as the compound, how does the cell count read?
**A.** The cell count was 1650 cells.

**Q.** Which cell count does the source give for `COc1cccc(-c2cc(C(=O)Nc3ccc([N+](=O)[O-])cn3)c3ccccc3n2)c1` here?
**A.** The cell count was 1580 cells.

**Q.** Which cell count does the source give for `Cc1ccc(NC(=O)Cc2ccc3c(c2)CCCC3)cc1C` here?
**A.** Its cell count is 1520 cells.

**Q.** Which cell count does the source give for `CCNC(=S)N1CCc2cc(OC)c(OC)cc2C1COc1ccc(F)cc1` (centres undefined) here?
**A.** Its cell count is 1600 cells.

**Q.** Which cell count does the source give for `CCOC(=O)C1=C(C)n2c(s/c(=C3\C(=O)Nc4ccccc43)c2=O)=NC1c1ccc(OC)cc1` (centres undefined) here?
**A.** The cell count was 1590 cells.

**Q.** For `C=CCN(C(=O)c1csnn1)C(C(=O)NCc1ccccc1)c1ccccc1F` (centres undefined), which cell count is on record?
**A.** Its cell count is 1520 cells.

**Q.** For `COc1cc2c(cc1NC(=O)CSc1nc3ccc(C)cc3[nH]1)oc1ccccc12`, which cell count is on record?
**A.** Its cell count is 1540 cells.

**Q.** For `COc1ccc(C)cc1S(=O)(=O)N(CC(=O)O)c1ccc(C)cc1`, which cell count is on record?
**A.** Its cell count is 1560 cells.

**Q.** With `CCOC(=O)c1ccc(NC(=O)CCOc2ccc(C)cc2)cc1` as the compound, how does the cell count read?
**A.** The cell count was 1630 cells.

**Q.** Which cell count does the source give for `C=C(C)[C@@H]1CC[C@]2(C(=O)O)CC[C@]3(C)C(CCC4[C@@]5(C)CC[C@H](O)C(C)(C)C5CC[C@]43C)C12` (some centres undefined) here?
**A.** Its cell count is 1470 cells.

**Q.** With `CNc1nc(C)c(C(=O)c2ccc(Cl)cc2)s1` as the compound, how does the cell count read?
**A.** The cell count was 1570 cells.

**Q.** With `Cc1ccc(-n2nc3c(=O)n(C(C)C(=O)NCCC4=CCCCC4)nc(C)c3c2C)cc1` (centres undefined) as the compound, how does the cell count read?
**A.** Its cell count is 1650 cells.

**Q.** With `CCOc1cc2c(cc1OCC)C(c1ccccc1)N(c1ccccc1)C(=O)C2` (centres undefined) as the compound, how does the cell count read?
**A.** Its cell count is 1650 cells.

**Q.** With `C=CCNC(=S)Nc1cc(S(=O)(=O)N2CCOCC2)ccc1-n1cncn1` as the compound, how does the cell count read?
**A.** The cell count was 1660 cells.

**Q.** For `O=C1CSC(c2cn(-c3ccccc3)nc2-c2ccccc2)N1Cc1ccco1` (centres undefined), which cell count is on record?
**A.** The cell count was 1640 cells.

**Q.** For `FC(F)(F)c1ccc(Cl)c(NC(=S)N/N=C/c2ccccc2C(F)(F)F)c1`, which cell count is on record?
**A.** The cell count was 1680 cells.

**Q.** With `CCCCCn1c(N)c(-c2nc3ccccc3s2)c2c([N+](=O)[O-])nn(CC)c(=O)c21` as the compound, how does the cell count read?
**A.** The cell count was 1640 cells.

**Q.** With `Cc1ccc(NC(=O)CN(C)S(=O)(=O)c2cccs2)c(Br)c1` as the compound, how does the cell count read?
**A.** Its cell count is 1540 cells.

**Q.** For `CCOc1ccc2c(c1)-c1c(ssc1=S)C(C)(C)N2C`, which cell count is on record?
**A.** The cell count was 1640 cells.

**Q.** With `Cc1ccccc1Cn1nc(C)c(NC(=O)C2c3ccccc3Oc3ccccc32)c1C` as the compound, how does the cell count read?
**A.** Its cell count is 1670 cells.

**Q.** Which cell count does the source give for `COc1cccc(/C(C)=N/NC(=O)Cc2c(C)[nH][nH]c2=O)c1` here?
**A.** Its cell count is 1560 cells.

**Q.** For `Cc1ccc(-n2nc(C)c3c(=O)[nH]c(C(F)(F)F)nc32)cc1`, which cell count is on record?
**A.** The cell count was 1570 cells.

**Q.** For `COc1ccc(-c2cnc(SCC(=O)Nc3nc(C(C)(C)C)cs3)n2Cc2ccco2)cc1`, which cell count is on record?
**A.** The cell count was 1560 cells.

**Q.** For `COc1ccc(C(C(=O)NC(C)(C)C)N(Cc2cccs2)C(=O)CCC(=O)Nc2cc(C)on2)cc1` (centres undefined), which cell count is on record?
**A.** Its cell count is 1630 cells.

**Q.** For `CCCCOc1ccccc1C(=O)N(Cc1ccc(C)o1)C1CCS(=O)(=O)C1` (centres undefined), which cell count is on record?
**A.** Its cell count is 1480 cells.

**Q.** With `CCOc1ccc(NC(=O)CN(C)c2ccc(S(=O)(=O)N(C(C)C)C(C)C)cn2)cc1OCC` as the compound, how does the cell count read?
**A.** Its cell count is 1620 cells.

**Q.** Which cell count does the source give for `CCCCn1c(SCC(=O)Nc2cc(C(F)(F)F)cc(C(F)(F)F)c2)nnc1C(CC)N(C)C` (centres undefined) here?
**A.** The cell count was 1600 cells.

**Q.** Which cell count does the source give for `CC/C(=N/Nc1ccccc1Cl)c1cnnc(-c2ccccc2)n1` here?
**A.** Its cell count is 1700 cells.

**Q.** For `COc1ccc(C2(c3ccc(OC)cc3)NC(=O)N(CC(=O)Nc3ccc(OC)c(OC)c3)C2=O)cc1`, which cell count is on record?
**A.** The cell count was 1690 cells.

**Q.** Which cell count does the source give for `O=C(c1ccc(S(=O)(=O)Nc2cccc(C(F)(F)F)c2)cc1)N1CCOCC1` here?
**A.** Its cell count is 1490 cells.
